Taken from: PubChem BioAssay AID1671195 (Yale University, 2021)

- Purpose: 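Regulators of LDL receptor activity judged by labelled LDL uptake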 (primary screen)
- Cells: human Huh7 hepatoma cells
- Reagent: siRNA pool against human genes, 18 nM
- Duration: about 2 to 2.5 days of knockdown, then 8 h LDL uptake
- Challenge: DiI-labelled LDL at 30 µg/ml for 8 h, in lipoprotein-deficient serum medium
- Measured: 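Per-cell DiI-LDL intensity by automated imaging; well means scaled to the plate median and given as a robust z-score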
- Reading the numbers: robust z-score: higher = more LDL uptake after knockdown
- Hit rule: 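a gene counts as active if at least two replicate z-scores exceed ±2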
In all, the deposit lists about 22,000 reagents; this is a random part of them. In the full data, about 1,510 (6.9%) got an active call. 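Active includes knockdowns raising or lowering LDL uptake; positive z-scores mean more uptake, negative mean less.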 Reagent sequences are not shown.

no.	gene	robust z-score, replicate 1	robust z-score, replicate 2	robust z-score, replicate 3	Outcome
1	LCT	1.1	0.961	1.4	inactive
2	IL5RA	-0.0558	0.651	0.249	inactive
3	SNRNP40	-0.71	-0.577	-0.931	inactive
4	LOC389250 (retired record)	-0.342	-0.0802	-0.338	inactive
5	LOC284134 (retired record)	2.16	1.9	1.71	inactive
6	MGST1	0.0353	0.0734	0.772	inactive
7	CTU1	-1.73	-1.88	-1.95	inactive
8	OR4D9	-0.53	-0.37	-0.54	inactive
9	OCIAD2	-0.986	-1.32	-1.27	inactive
10	LINC00525	-0.344	-0.424	-0.633	inactive
11	DNAAF6	-0.898	0.428	0.269	inactive
12	C3	2.86	0.774	2.31	active
13	LOC440065 (retired record)	1.27	1.29	1.41	inactive
14	IL21R	0.4	-0.21	0.193	inactive
15	SBSPON	-0.346	0.448	-0.554	inactive
16	LOC388652 (retired record)	0.717	0.745	0.0463	inactive
17	LOC440308 (retired record)	0.843	1.03	0.772	inactive
18	RPL36A	-0.863	-0.412	0.0297	inactive
19	LOC442072 (retired record)	-0.0826	-0.459	-0.31	inactive
20	FAM3C	0.454	-0.00111	1.45	inactive
21	SCYL3	0.71	0.801	0.756	inactive
22	B3GALT5	-0.999	-1.81	-1.57	inactive
23	FTH1P4	-0.116	-1.25	-0.822	inactive
24	MRPL16	-0.305	0.795	-0.994	inactive
25	PAGR1	-0.574	-1.32	-0.739	inactive
26	GLIPR2	0.473	0.664	-1.18	inactive
27	LOC388807 (retired record)	-1.56	-1.72	-1.58	inactive
28	SPRR2D	-0.186	1.01	1.23	inactive
29	NOVA2	-0.943	-0.428	-1.1	inactive
30	ZDHHC7	1.19	-0.0757	1.98	inactive
31	GPR19	-0.94	-1.35	-1.45	inactive
32	GPA33	1.1	0.488	0.947	inactive
33	MDK	1.8	1.36	1.35	inactive
34	GABPB1	0.0182	-0.487	-0.54	inactive
35	IKBKB	-0.846	-0.304	-0.871	inactive
36	PPP4C	0.81	-0.636	0.865	inactive
37	PGR	0.763	0.131	-0.0149	inactive
38	FABP3	4.48	2.33	-1.64	active
39	SH3GLB1	0.89	-0.0704	0.967	inactive
40	LOC440426 (retired record)	-0.497	0.148	-0.34	inactive
41	LOC390468 (retired record)	-0.546	-0.198	-0.758	inactive
42	TMEM50B	-0.889	-0.41	-0.842	inactive
43	CDC14C	-0.853	-0.772	-1.01	inactive
44	GSTT1	0.0818	0.171	-0.145	inactive
45	EFNA4	-0.2	0.106	-0.576	inactive
46	OR7C1	1.91	0.395	1.41	inactive

Copied from the list:
For “robust z-score, replicate 1”, RPL36A shows -0.863
Entry of IL21R under “robust z-score, replicate 1”: 0.4
CTU1, robust z-score, replicate 2 = -1.88
